Library screen at single concentrations

The chains behind the UniProt entries cited, without tags or fusion partners. Residues count along the entry.
UniProt Q8IDJ8, 1-583: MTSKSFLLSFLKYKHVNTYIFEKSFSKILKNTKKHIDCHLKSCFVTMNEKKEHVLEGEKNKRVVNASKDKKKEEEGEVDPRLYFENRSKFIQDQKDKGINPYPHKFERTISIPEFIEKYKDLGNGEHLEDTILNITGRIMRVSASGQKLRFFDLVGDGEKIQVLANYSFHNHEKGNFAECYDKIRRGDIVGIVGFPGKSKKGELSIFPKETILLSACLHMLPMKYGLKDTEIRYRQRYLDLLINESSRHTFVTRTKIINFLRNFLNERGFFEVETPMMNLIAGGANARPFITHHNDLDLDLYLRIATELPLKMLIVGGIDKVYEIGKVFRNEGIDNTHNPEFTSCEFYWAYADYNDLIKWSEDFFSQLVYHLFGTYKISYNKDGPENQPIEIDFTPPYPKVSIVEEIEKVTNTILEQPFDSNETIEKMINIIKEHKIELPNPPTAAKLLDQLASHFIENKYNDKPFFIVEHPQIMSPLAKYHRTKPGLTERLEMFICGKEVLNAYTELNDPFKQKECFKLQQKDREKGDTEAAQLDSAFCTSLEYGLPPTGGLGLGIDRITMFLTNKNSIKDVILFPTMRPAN

Source: ChEMBL document CHEMBL3988442, “University of Dundee, Small-Polar-MMV Screening Library” (2021).

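Lysine-tRNA ligase, Plasmodium falciparum 3D7 (UniProt Q8IDJ8). Enzyme assay of the cytosolic lysyl-tRNA synthetase in 384-well plates, read by luminescence. Tested at 30 µM. Direction is inferred from only a few compounds that gave an IC50; most scored high, so higher reads as stronger inhibition. About 69,000 compounds were tested under these conditions; 0.071% (about 49) showed 50% or more at least once.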

Results are given as percent effect. How 0% and 100% were set is not recorded. Most values in the screen are low, and negative values occur. This is an unselected part of the compounds tested.

| SMILES | effect |
|---|---|
| `Cn1ncc2c(N3CCCC(C)(O)C3)nc(C(C)(C)C)nc21` (centres undefined) | 2.551 |
| `CN(C)C(=O)c1ccc(C2CCCN2C(=O)c2ccccc2N(C)C)s1` (centres undefined) | 2.174 |
| `Cc1ccccc1SC1CCN(C(=O)C2CNC(=O)N2)CC1` (centres undefined) | 1.007 |
| `Cn1cccc1C(=O)NC1(C(=O)NCC2CC2)CCCC1` | 0.6644 |
| `CCC(NC(=O)CN(C)Cc1ccc(C)o1)c1ccc(C)cc1` (centres undefined) | 6.588 |
| `CCNC(=O)C1CCN(c2cc(-c3ccccc3)nc3ccnn23)C1` (centres undefined) | -0.9824 |
| `Cc1n[nH]c(C2CN(C(=O)c3cnc[nH]3)CCO2)n1` (centres undefined) | 1.631 |
| `CCO[C@H]1CC[C@H]2[C@H]1OCCN2C(=O)CC1=CCCCC1` | 5.364 |
| `Cc1cc(C(=O)N[C@@H]2CCNC[C@H]2O)ccc1Cl` | 0.1156 |
| `CCc1ccc(S(=O)(=O)Nc2cc(C(=O)O)c(F)cc2F)s1` | 5.506 |
| `Oc1nc(N2CCOCC2)nc2c1CCN(Cc1ccccc1)CC2` | 6.394 |
| `Cc1cc(NC(=O)CN2CCc3cnc(C)nc3C2)on1` | -1.053 |
| `O=C(C1CCCC1)N1CC2(CCCN(C3COC3)C2)Cc2ccccc21` (centres undefined) | -2.614 |
| `CCN(CC)C(=O)C1CCC2(CCNCC2)O1` (centres undefined) | -1.646 |
| `COc1ccc(OC)c(CNCc2ccnc(N3CCCCC3)c2)c1` | 2.189 |
| `O=C(c1ccc(-n2cccc2)c(F)c1)N1CCCN2CCCC2C1` (centres undefined) | 3.023 |
| `CN(Cc1cc2n(n1)CCNC2)Cc1noc(C2CCC2)n1` | 9.695 |
| `COc1ccccc1OCCN(C)c1cc(C)nc(N)n1` | -5.677 |
| `CN(C)C(C(=O)N1CCC(C#N)CC1)c1ccccc1F` (centres undefined) | 2.616 |
| `Cc1cnn(CC2CCCCN2C(=O)c2ccc3c(c2)COC3)c1` (centres undefined) | -1.544 |
| `CC(C)(C)OC(=O)N1CC(CC(=O)NCc2ccsc2)C1` | -2.146 |
| `O=C(C1CC1)N1C[C@@H](F)[C@@H](OCc2nc3ccccc3o2)C1` | 6.053 |
| `CS(=O)(=O)NC[C@@H]1OC[C@H]2CN(Cc3ccsc3)CC[C@H]21` | 0.2778 |
| `Cn1cc(Cl)c(C(=O)N2CCc3nc4sccc4c(=O)n3CC2)n1` | 1.793 |
| `CN(CCN1CCOCC1)S(=O)(=O)CC1CCCC1` | 1.716 |
| `CS(=O)(=O)CCNCc1ccc(OCc2cscn2)cc1` | 7.033 |
| `CN1CCN(C2CCN(CCOc3ccc(C#N)cc3)CC2)C1=O` | -0.384 |
| `CN1CCC(CNC(=O)c2cccc(NC(N)=O)c2)c2ccccc21` (centres undefined) | 2.24 |
| `COc1ccccc1CC(C)(C)NC(=O)CN(C)C(C)C` | 1.187 |
| `CCN(CC)C(=O)CCNC(=O)c1c[nH]c2ccc(OC)cc12` | 1.627 |
| `O=C(Cc1ccccc1F)N1CCCCC1c1ccn2ccnc2n1` (centres undefined) | 5.474 |
| `Cc1ncc(CNC(=O)CCc2c(C)noc2C)c(C2CCCN2C)n1` (centres undefined) | 5.505 |
| `CC(C)C1CN(S(C)(=O)=O)CCCN1Cc1ccc(F)cc1` (centres undefined) | 8.612 |
| `COc1cc(-c2nc3c([nH]2)CCCNC3=O)cc(OC)c1OC` | 0.1877 |
| `O=C(Nc1ccc(-c2cnc(NCCO)nc2)cc1)[C@@H]1CCCCN1` | 3.538 |
| `Cc1nn(C(C)C)c(C)c1NC(=O)c1ccc(F)cc1` | 0.2514 |
| `Cc1nc(CN2C(=O)CCC23CCN(Cc2ccoc2)CC3)cs1` | 2.099 |
| `CCc1cnc2c(c1Nc1ccc3c(c1)OCO3)c(=O)n(C)c(=O)n2C` | 1.105 |
| `CC(C)C(=O)NCC(=O)NCC1CCN(c2cnn(C)c(=O)c2)CC1` | -0.3233 |
| `O=C(c1ccccc1)N1CCC[C@]2(C[C@@H](OCc3ccccn3)CO2)C1` | -0.4926 |
| `COC(=O)C1CCCCN1Cc1cccc(C(=O)NCc2ccco2)c1` (centres undefined) | 4.766 |
| `O=C(CN1CCCS1(=O)=O)Nc1ccc(OC2CCCC2)cc1` | 1.722 |
| `CN1CCC(N(C)C[C@H]2CC[C@@H](Cc3cccc(O)c3)O2)CC1` | -1.433 |
| `COCCOc1ccc(C(=O)N2CCCC(n3cncn3)C2)cn1` (centres undefined) | -0.328 |
| `CCCc1nc(C(C)(C)NC(=O)C2CC(=O)N(C3CCCC3)C2)no1` (centres undefined) | 0.9622 |
| `Cc1noc2nc(C3CCN(Cc4ccncc4)CC3)cc(C(F)F)c12` | -7.05 |
| `Cc1ncc2c(n1)CN(CC(=O)Nc1nnc(C)s1)CC2` | 3.154 |
| `Cc1ccccc1CSc1nc(N)cc(N2CCCC(O)C2)n1` (centres undefined) | -2.269 |

The last 3 entries again:

{"smiles": "Cc1noc2nc(C3CCN(Cc4ccncc4)CC3)cc(C(F)F)c12", "effect": -7.05}
{"smiles": "Cc1ncc2c(n1)CN(CC(=O)Nc1nnc(C)s1)CC2", "effect": 3.154}
{"smiles": "Cc1ccccc1CSc1nc(N)cc(N2CCCC(O)C2)n1", "stereo": "centres undefined", "effect": -2.269}